Experimental data published in the supplement of paper PMC10849652.
This is one part of the list.

Protein sequences, listed by entry. Tags and fused reporters are not part of them. Lines headed by an entry give the natural chain unless they say otherwise; changes in a name come on top.
UniProt Q9H0Y0: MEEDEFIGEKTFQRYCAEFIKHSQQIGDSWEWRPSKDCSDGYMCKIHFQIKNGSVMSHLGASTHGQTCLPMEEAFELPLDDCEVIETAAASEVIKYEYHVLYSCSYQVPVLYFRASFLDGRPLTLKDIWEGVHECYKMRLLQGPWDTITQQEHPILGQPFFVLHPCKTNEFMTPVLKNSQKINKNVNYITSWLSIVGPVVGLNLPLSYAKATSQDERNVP
UniProt Q8IXJ9: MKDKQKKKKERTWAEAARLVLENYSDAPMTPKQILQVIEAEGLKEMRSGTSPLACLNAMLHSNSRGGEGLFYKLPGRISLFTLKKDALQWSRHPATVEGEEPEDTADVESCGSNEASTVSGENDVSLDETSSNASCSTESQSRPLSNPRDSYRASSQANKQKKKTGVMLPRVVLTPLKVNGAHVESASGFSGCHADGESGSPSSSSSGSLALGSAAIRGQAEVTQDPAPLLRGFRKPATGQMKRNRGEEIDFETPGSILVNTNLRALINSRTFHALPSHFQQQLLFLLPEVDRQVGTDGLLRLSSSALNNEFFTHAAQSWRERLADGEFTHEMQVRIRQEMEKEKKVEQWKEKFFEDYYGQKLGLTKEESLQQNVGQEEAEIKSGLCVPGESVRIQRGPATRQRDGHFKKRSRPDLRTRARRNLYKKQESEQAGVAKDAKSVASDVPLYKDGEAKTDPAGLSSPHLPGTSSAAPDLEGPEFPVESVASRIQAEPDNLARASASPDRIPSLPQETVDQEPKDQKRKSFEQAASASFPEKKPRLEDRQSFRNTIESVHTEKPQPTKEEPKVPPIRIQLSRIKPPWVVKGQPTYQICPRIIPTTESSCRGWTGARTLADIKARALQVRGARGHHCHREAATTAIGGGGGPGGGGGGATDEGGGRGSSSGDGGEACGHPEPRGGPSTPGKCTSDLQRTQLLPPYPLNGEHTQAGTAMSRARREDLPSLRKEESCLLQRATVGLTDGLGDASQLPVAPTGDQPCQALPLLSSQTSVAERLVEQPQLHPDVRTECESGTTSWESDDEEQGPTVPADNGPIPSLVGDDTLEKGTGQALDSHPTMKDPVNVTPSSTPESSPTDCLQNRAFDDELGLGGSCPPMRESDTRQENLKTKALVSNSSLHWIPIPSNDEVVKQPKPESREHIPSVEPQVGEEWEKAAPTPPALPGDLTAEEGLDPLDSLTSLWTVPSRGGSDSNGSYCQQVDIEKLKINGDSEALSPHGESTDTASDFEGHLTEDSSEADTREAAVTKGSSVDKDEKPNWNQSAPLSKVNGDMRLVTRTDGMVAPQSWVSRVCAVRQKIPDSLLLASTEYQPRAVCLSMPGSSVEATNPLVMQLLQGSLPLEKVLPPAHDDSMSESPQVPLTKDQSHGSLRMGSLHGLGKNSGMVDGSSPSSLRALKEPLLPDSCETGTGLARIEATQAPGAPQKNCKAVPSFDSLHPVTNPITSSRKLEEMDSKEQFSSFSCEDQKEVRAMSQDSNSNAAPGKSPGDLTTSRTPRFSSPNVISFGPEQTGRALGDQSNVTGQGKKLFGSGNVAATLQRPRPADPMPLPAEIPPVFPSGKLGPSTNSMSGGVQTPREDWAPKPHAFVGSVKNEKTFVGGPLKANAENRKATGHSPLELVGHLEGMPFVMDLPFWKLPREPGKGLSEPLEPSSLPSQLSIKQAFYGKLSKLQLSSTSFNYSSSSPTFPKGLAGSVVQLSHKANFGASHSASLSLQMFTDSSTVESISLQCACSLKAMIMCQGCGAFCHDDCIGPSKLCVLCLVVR
UniProt Q9Y5K8, whole entry, looked up: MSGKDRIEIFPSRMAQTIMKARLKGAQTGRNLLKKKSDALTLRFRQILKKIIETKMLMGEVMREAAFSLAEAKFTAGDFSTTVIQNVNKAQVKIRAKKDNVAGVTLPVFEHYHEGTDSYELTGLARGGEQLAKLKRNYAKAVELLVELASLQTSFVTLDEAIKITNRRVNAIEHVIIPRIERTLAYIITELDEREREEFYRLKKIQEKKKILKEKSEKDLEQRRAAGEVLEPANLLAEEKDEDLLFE
UniProt Q8N3C0, whole entry, looked up: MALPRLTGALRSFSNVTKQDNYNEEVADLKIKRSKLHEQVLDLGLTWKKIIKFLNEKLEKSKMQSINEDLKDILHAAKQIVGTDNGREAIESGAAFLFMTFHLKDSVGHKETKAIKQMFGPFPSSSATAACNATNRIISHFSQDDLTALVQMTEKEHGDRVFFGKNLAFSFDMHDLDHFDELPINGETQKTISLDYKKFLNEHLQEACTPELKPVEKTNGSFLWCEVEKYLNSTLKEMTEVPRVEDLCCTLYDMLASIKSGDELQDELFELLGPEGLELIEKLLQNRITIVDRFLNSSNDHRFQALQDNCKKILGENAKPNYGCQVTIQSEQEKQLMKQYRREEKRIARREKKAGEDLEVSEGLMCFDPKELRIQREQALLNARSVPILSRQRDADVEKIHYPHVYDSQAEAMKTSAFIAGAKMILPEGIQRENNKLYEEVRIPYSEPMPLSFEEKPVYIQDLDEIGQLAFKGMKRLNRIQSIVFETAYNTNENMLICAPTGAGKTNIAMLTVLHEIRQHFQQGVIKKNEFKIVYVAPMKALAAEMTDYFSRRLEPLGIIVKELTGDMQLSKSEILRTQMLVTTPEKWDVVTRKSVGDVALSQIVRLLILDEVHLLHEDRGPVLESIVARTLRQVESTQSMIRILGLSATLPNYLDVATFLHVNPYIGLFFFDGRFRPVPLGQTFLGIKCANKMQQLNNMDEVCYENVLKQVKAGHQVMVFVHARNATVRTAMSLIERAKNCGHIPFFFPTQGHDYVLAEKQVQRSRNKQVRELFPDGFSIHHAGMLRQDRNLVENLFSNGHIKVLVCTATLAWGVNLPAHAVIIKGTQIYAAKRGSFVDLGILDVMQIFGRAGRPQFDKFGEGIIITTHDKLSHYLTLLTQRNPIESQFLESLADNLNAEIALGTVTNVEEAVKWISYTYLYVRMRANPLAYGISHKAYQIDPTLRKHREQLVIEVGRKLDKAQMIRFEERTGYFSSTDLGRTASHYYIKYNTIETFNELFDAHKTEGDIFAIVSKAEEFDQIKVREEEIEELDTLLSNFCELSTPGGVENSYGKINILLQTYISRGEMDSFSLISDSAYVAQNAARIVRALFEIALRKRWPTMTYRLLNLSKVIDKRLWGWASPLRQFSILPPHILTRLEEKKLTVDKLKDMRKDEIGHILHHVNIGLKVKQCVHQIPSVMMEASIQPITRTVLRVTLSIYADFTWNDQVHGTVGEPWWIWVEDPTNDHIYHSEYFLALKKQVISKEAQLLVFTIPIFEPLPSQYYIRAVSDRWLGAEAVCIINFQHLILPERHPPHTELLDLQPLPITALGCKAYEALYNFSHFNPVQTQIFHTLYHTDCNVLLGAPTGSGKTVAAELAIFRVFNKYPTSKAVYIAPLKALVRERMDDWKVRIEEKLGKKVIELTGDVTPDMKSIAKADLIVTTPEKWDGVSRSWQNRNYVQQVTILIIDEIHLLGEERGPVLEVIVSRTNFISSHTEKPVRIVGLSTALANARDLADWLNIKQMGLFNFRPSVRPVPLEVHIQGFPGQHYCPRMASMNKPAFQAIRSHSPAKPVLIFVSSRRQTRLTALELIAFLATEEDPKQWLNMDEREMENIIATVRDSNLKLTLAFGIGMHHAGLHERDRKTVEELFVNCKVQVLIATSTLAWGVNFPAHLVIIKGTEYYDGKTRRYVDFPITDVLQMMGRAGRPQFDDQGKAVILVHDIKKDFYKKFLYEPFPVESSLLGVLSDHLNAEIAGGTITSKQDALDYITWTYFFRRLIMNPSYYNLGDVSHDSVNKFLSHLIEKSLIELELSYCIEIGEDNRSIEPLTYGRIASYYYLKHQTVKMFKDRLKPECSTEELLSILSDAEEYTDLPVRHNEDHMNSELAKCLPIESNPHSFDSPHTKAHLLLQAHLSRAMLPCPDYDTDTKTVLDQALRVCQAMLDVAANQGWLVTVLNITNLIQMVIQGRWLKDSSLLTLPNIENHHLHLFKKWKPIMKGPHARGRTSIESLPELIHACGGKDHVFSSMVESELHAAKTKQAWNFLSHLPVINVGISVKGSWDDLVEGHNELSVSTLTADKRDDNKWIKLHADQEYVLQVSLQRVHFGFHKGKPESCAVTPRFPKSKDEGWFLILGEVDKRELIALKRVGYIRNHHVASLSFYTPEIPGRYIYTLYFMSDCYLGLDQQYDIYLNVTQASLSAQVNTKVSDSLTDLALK
UniProt P36404: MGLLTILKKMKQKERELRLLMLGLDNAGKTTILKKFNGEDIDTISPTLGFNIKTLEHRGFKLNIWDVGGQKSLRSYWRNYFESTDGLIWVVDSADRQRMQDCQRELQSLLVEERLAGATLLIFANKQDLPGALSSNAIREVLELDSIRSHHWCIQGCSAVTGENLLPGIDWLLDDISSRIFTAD
UniProt Q9Y6H3: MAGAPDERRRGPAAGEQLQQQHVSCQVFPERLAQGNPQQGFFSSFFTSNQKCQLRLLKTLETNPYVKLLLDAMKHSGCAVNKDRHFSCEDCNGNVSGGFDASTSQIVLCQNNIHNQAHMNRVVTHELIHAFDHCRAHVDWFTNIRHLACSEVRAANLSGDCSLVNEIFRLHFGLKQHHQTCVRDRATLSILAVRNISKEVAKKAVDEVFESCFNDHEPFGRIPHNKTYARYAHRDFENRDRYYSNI
UniProt P14415, whole entry, looked up: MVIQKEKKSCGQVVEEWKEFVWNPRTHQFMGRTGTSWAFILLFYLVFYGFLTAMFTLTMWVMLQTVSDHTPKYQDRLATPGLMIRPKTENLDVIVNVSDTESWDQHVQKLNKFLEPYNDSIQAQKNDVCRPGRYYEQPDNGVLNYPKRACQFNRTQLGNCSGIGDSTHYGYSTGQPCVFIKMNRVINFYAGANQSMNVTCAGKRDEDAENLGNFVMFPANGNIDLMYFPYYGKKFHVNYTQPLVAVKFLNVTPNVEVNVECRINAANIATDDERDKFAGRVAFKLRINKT
UniProt O00244: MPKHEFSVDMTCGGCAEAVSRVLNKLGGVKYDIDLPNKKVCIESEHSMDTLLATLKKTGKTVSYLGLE
UniProt P27540, whole entry, looked up: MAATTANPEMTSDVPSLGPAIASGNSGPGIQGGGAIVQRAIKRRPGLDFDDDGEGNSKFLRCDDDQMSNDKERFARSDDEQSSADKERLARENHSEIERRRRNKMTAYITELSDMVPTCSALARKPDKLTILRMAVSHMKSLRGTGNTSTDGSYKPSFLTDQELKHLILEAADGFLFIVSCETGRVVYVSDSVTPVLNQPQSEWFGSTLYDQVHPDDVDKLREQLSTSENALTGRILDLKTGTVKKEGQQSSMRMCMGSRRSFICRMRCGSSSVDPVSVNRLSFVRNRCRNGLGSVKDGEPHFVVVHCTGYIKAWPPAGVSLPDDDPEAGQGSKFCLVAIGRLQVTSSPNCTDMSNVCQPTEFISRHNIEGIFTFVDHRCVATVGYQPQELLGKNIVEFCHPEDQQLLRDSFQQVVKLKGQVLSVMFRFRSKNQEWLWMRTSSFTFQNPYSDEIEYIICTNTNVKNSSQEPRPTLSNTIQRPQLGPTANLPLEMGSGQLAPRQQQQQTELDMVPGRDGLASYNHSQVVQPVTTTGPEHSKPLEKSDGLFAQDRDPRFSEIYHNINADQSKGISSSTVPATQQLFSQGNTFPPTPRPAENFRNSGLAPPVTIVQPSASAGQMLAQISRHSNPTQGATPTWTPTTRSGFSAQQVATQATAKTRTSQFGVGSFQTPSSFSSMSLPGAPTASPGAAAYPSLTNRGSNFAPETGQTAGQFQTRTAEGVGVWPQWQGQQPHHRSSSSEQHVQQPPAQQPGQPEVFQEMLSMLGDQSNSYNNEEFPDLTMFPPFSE
UniProt Q9H1I8: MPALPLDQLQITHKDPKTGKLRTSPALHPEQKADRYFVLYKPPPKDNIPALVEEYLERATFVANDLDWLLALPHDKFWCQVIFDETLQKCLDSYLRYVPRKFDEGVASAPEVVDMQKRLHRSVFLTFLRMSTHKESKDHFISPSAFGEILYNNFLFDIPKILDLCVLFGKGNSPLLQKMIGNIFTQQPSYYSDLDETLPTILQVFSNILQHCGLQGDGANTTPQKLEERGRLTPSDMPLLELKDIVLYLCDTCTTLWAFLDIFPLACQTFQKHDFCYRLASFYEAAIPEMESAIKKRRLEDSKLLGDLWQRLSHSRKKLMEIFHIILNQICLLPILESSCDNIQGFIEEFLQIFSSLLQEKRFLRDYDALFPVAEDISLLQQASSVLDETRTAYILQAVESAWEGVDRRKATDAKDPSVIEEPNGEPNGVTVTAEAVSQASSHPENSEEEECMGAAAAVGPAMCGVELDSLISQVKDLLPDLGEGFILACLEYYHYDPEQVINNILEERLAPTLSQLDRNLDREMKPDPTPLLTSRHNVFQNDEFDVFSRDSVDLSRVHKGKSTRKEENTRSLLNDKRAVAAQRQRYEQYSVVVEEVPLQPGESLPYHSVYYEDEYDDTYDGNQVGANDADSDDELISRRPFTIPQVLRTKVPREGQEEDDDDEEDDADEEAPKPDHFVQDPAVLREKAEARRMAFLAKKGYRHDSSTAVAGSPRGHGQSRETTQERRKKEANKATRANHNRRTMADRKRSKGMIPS

Compound: Cc1sc2c(c1C)C(c1ccc(Cl)cc1)=N[C@@H](CC(=O)OC(C)(C)C)c1nnc(C)n1-2
Assay: log2 fold change, soluble protein after heating vs DMSO (PISA); higher = thermal stabilisation; K562 cells, 10 uM, 30 min; active = over 0.2 and 3.5 SD of the protein, either way, in both replicates (recomputed)
Summary of the method: (§1)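 Soluble protein was defined as the supernatant after 21,000xg for 90 min. It came from K562 cells at 2×10^6 cells/mL given 10 μM compound for 30 min, heated in aliquots for 3 min across 48°C-58°C, pooled, and extracted in PBS with 0.5% NP-40 at 4°C, and was quantified by TMTpro 16plex LC-MS/MS with equalised channel sums. Thermal stability against control samples, from duplicates, is reported as log2 fold change.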

| Target | log2 fold change |
| --- | --- |
| ARL13B (UniProt Q3SXY8) | inactive: -0.054 |
| ATPAF2 (UniProt Q8N5M1) | inactive: -0.084 |
| ATG10 (UniProt Q9H0Y0) | inactive: -0.217 |
| ATP5ME (UniProt P56385) | inactive: -0.072 |
| ASL (UniProt P04424) | inactive: -0.022 |
| ASXL1 (UniProt Q8IXJ9) | inactive: -0.108 |
| ARRB1 isoform 2 (UniProt P49407) | inactive: 0.028 |
| ARPIN isoform 2 (UniProt Q7Z6K5) | inactive: -0.033 |
| ATG7 (UniProt O95352) | inactive: -0.022 |
| ATAD3A isoform 2 (UniProt Q9NVI7) | inactive: 0.08 |
| ATP6V1D (UniProt Q9Y5K8) | inactive: -0.036 |
| ASCC3 (UniProt Q8N3C0) | inactive: 0.318 |
| ARL2 (UniProt P36404) | inactive: -0.062 |
| ATP5PO (UniProt P48047) | inactive: -0.029 |
| ATP5F1B (UniProt F8W0P7) | inactive: 0.04 |
| ATP23 (UniProt Q9Y6H3) | inactive: -0.052 |
| ATG2B (UniProt Q96BY7) | inactive: 0.027 |
| ATP6V1A (UniProt P38606) | inactive: -0.03 |
| ATP1B2 (UniProt P14415) | inactive: 0.047 |
| ATP5PF isoform 2 (UniProt P18859) | inactive: 0.141 |
| ATOX1 (UniProt O00244) | inactive: -0.153 |
| ARL5A (UniProt Q9Y689) | inactive: -0.005 |
| ARPC1B (UniProt O15143) | inactive: -0.051 |
| ATP5IF1 (UniProt Q9UII2) | inactive: -0.013 |
| ATL2 (UniProt Q8NHH9) | inactive: -0.012 |
| ATAD3B (UniProt Q5T9A4) | inactive: 0.123 |
| ARNT (UniProt P27540) | inactive: 0.024 |
| ATP6V1B2 (UniProt P21281) | inactive: 0 |
| ATE1 (UniProt O95260) | inactive: -0.028 |

Compound: c1ccc([C@@H]2C[C@H]2NC2CCNCC2)cc1
Assay: as above
Summary of the method: as §1

| Target | log2 fold change |
| --- | --- |
| ATPAF2 (UniProt Q8N5M1) | inactive: 0.012 |
| ATP2B2 (UniProt Q01814) | inactive: -0.207 |
| ATP5ME (UniProt P56385) | inactive: 0.014 |
| ASL (UniProt P04424) | inactive: 0.04 |
| ASXL1 (UniProt Q8IXJ9) | inactive: -0.173 |
| ARRB1 isoform 2 (UniProt P49407) | inactive: 0.096 |
| ATG7 (UniProt O95352) | inactive: -0.045 |
| ATAD3A isoform 2 (UniProt Q9NVI7) | inactive: 0.054 |
| ATP6V1D (UniProt Q9Y5K8) | inactive: 0.002 |
| ASCC3 (UniProt Q8N3C0) | inactive: -0.003 |
| ARL2 (UniProt P36404) | inactive: 0.012 |
| ATP5PO (UniProt P48047) | inactive: 0.017 |
| ATP23 (UniProt Q9Y6H3) | inactive: -0.053 |
| ATG4A (UniProt Q8WYN0) | inactive: 0.036 |
| ATG2B (UniProt Q96BY7) | inactive: 0.066 |
| ATP6V1A (UniProt P38606) | inactive: -0.028 |
| ATP1B2 (UniProt P14415) | inactive: 0.111 |
| ATP5PF isoform 2 (UniProt P18859) | inactive: -0.055 |
| ATOX1 (UniProt O00244) | inactive: 0.008 |
| ARL5A (UniProt Q9Y689) | inactive: -0.04 |
| ARPC1B (UniProt O15143) | inactive: -0.032 |
| ASCC2 (UniProt Q9H1I8) | inactive: -0.033 |
| ARSK (UniProt Q6UWY0) | inactive: -0.175 |
| ATP5IF1 (UniProt Q9UII2) | inactive: -0.079 |
| ATL2 (UniProt Q8NHH9) | inactive: -0.077 |
| ATP2C1 isoform 3 (UniProt P98194) | inactive: -0.057 |
| ATAD3B (UniProt Q5T9A4) | inactive: 0.025 |
| ARNT (UniProt P27540) | inactive: 0.017 |
| ATP6V1B2 (UniProt P21281) | inactive: 0.009 |
| ATE1 (UniProt O95260) | inactive: -0.023 |
